Test results published in the supplement of paper PMC5949888.
Most values lie at the floor of the assay. Slopes are relative: functional sequences can read slightly below zero.

test system: Saccharomyces cerevisiae PS128 hsf1 delta, HSF1(1-493) fusion; assay: growth estimate (transactivation domain function in HSF1 fusion, heat-shock survival) (a.u. (slope of normalised read count over time)); higher = stronger growth at 37°C, i.e. more transactivation activity; conditions: library: random library

Substance	growth estimate
SDPDRRKGRESTALERPIIP	< -0.25
IPSRTISVCPGCDAGRASST	< -0.25
TERVALFALACMSLDHHVLR	< -0.25
VQIRLEVRGISRGFECGSVP	< -0.25
SKIHWVA	< -0.25
KVKILWPKGRPHVGTANWST	< -0.25
LAPVIMTKWGSSIRTLIQAV	< -0.25
NCSSLND	< -0.25
QLDSRLS	< -0.25
WGTTGKAKIFS	< -0.25
DHLGNFLNAVRKAM	< -0.25
TYRFFIADVEKPWLCYSGNS	< -0.25
VLQEPGIVTI	< -0.25
GYVAR	< -0.25
RAPMTAPPVNPGRSTSPILR	< -0.25
SNQLKSPILG	< -0.25
NDRLIIRTGPLYRSMQSGWT	-0.229
GGCTRVKYGR	< -0.25
VRRKIIEP	< -0.25
GTRTKLVRSVNAHSSPSQAA	< -0.25
KNSYQSNTTGKPRSLGFSI	< -0.25
GTGSVPISAAGKLEDTIRS	< -0.25
RQTIIIS	< -0.25
HTCKWGWYRVFRFVLSSPVD	< -0.25
HSDSQVVGGLL	< -0.25

Laid out differently: results already given.

| Substance | growth estimate |
| --- | --- |
| IPSRTISVCPGCDAGRASST | < -0.25 |
| LAPVIMTKWGSSIRTLIQAV | < -0.25 |
| DHLGNFLNAVRKAM | < -0.25 |
| SNQLKSPILG | < -0.25 |
| GGCTRVKYGR | < -0.25 |
| RQTIIIS | < -0.25 |
| HTCKWGWYRVFRFVLSSPVD | < -0.25 |

(cont.)

Substance	growth estimate
EHGLPRPGHLRAAIRHRLDR	< -0.25
CNQPSNPRVVTGRGTRRLKD	< -0.25
MMGRSTLSRHARTKPPSHRF	< -0.25
TGSAPSEAGWGLTWFLKSSW	< -0.25
PSFPRRKKTNTP	< -0.25
HSTARCTPPDPRQRVDMNVE	-0.245
NTRFWWT	< -0.25
FDVRGLGS	< -0.25
LVRISRHGNEIRNHVALGSW	< -0.25
PLRNVTMLGLLS	< -0.25
GMSTKKPRVYEAYLDRGVPA	< -0.25
QYFGQSDLPQHTWIVFF	< -0.25
LPVCSDS	< -0.25
VSSCMDGIDETKESRGAHTY	< -0.25
AFGITRRCQSAISSASSKTS	< -0.25
AIIVFINRNYRSSRFADTTP	< -0.25
PQQRGTVRKSARASVDGSKE	< -0.25
WAV	< -0.25
LANRERSCSLWPLSSCNDDG	< -0.25
GASLTASSGREFTTRGSSLI	< -0.25
ATGVGGVLASREDRKNRVGR	< -0.25
STTGDLCSSASRSGHTFCQS	< -0.25
VVRDLIGLRYPTTYRITRAA	< -0.25
GCQRIAQAQMYRNIAGHTSL	< -0.25
GTGMTHTACERHSKNWSLGG	< -0.25

Substance	growth estimate
LGLHQKVRSPVTVNLGKYDV	-0.208
FSVRSDREVRSHVNLRYSQW	< -0.25
KRDGRQEVAVWEGSGLGGRT	< -0.25
EGELGNPLNGIGMMMPVHDT	< -0.25
TGGGLKFVSIVGLKLEYFTH	< -0.25
VTKAALHRFVYISTNRE	< -0.25
IGQRIQCIKLLQGTTIYMVN	< -0.25
FIRASICFGRRSVLA	< -0.25
RETISVKMGAGAEEENGADF	< -0.25
VDVAGFRSVLTGSLISRM	< -0.25
VGKCFEGASIHELSLLSSHL	< -0.25
SCQPIYQHLESHTRC	< -0.25
KDMVVNLGLISEL	< -0.25
QRDLDVC	< -0.25
PPPKIRYQMQERSA	< -0.25
SGFGHKGVNSEGRSPRTGLS	< -0.25
IRVI	< -0.25
HKPRRYLTAVHVERGR	< -0.25
EKLEANAIYDNNALSISLYS	< -0.25
SHWFHISAN	< -0.25
LSYSGMGPRRYLYLVNEQCT	< -0.25
SFECLSTSVATVIQGFATHF	< -0.25
WLSNADTF	< -0.25
GEAADGGHVV	< -0.25
GDASNPI	< -0.25
